# Experimental data reported in the supplement of paper PMC8728848.
# Some of the results follow.
# Tests used:
# Assay in all cases: glycan array binding signal (z-score within array); higher = stronger binding
# Details in all cases: glycan notation: IUPAC condensed, linker removed
# [1] = target: Neu5Gc(a2-8)Neu5Gc(a2-3)Gal(b1-4)GlcNAc(b1-3)Gal(b1-4)GlcNAc
# How it was run: (§1)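 Arrays were curated from the Consortium for Functional Glycomics database, 3228 in total, and kept only where the protein sequence was available. Binding is expressed as a within-array Z-score. This score was averaged across arrays of the same protein sequence at different concentrations or buffers and across linkers, and negative values can be read as non-binding.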
# [2] = target: Neu5Gc(a2-8)Neu5Gc(a2-6)Gal(b1-4)GlcNAc
# How it was run: as §1
# [3] = target: Neu5Gc(b2-6)Gal(b1-4)GlcNAc
# How it was run: as §1
binder,measurement,setting,value
"CD34 (Homo sapiens), P28906 (protein) MGSSHHHHHHSSGLVPRGSHMSTSLATSPTKPYTSSSPILSDIKAEIKCSGIREVKLTQGICLEQNKTSSCAEFKKDRGEGLARVLCGEEQADADAGAQVCSLLLAQSEVRPQCLLLVLANRTEISSKLQLMKKHQSDLKKLGILDFTEQDVASHQSYSQKT",glycan array binding signal (z-score),[1],-0.523
same,glycan array binding signal (z-score),[2],-0.041
same,glycan array binding signal (z-score),[3],-0.479
